Measured values: patent publication US20210206882A1 (AB STUDIO, published 2021)
These are yes or no findings as the source states them, for the method shown. Some entries that bind do so weakly or less than the wild type.

Molecular target: T1, CD55 (UniProt P08174 35-353, limits assumed)
T1 construct: In the internalization assay CD55 stood on MDA231 and SIHA cells
T1 sequence (looked up): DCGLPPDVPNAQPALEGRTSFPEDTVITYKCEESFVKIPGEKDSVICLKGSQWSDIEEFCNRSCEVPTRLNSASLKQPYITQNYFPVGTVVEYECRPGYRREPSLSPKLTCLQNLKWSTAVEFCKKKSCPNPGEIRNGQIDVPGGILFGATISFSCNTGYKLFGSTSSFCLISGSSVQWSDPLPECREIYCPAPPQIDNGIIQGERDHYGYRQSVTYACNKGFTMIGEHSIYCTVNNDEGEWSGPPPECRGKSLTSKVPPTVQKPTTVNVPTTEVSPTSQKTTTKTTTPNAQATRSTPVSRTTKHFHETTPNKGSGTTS
Assay: flow cytometry cell binding on MDA231 cells, MFI of Cy3 goat anti-human IgG; caption read as 'Ab Concentration: 0.63 µg/mL'

binding: binds
B1: Anti-CD55 homodimer IgG (CD55 v2) containing the designed VH sequence (SEQ ID NO: 5) and the common VL2 sequence (SEQ ID NO: 7) (antibody, V domains shown)
VH: QVKLQESGGGLVKPGGSLKLSCAASGFTFSGYGMSWIRQTPGKRLEWVATINSGGSYTYYSDSVKGRFTISRDNVKNTLYLQMSSLKSEDTAMYYCARRNGTLYYYLMDYWGRGTLVTVSS
VL: QSALTQPASVSGSPGQSITISCTGTSSDVGGYNYVSWYQQHPGKAPKLMIYDVSNRPSGVSNRFSGSKSGNTASLTISGLQAEDEADYYCSSYTSSSTRIFGGGTKVTVLR
